Measured values reported in US20250129170A1.
Substitutions are numbered along the chain they refer to. These are yes or no findings as the source states them, for the method shown. Some results given as binding are weak or reduced against the parent protein; the word gives no strength.

Sequences of proteins named here, by UniProt entry; tags and fusion partners are left off. A change or cut given only in a name is not applied to a line headed by its entry. Residues count along the entry.
UniProt P19235, residues 25-250: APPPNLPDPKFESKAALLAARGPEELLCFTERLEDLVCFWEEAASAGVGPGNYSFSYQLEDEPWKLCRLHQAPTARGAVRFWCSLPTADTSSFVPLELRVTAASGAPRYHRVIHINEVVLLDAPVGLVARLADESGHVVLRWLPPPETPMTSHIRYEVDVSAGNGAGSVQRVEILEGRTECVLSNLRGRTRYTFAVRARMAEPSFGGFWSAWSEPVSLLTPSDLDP

B1: anti-EPOR antibody clonotype461 (antibody, V domains shown)
VH: EVQLVESGGGLVQPGGSLRLSCAASGFTFSSYWMSWVRQAPGKGLEWVANIKQDGSEKYYVDSVKGRFTISRDNAKNSLYLQMNSLRAEDTAVYYCARDRLTGDLDYWGQGTLVTVSS
VL: QAVLTQPASLSASPGASASLTCTLRSGINVGTYRIYWYQQKPGSPPQYLLRYKSDSDKQQGSGVPSRFSGSKDASANAGILLISGLQSEDEADYYCMIWHSSAWVFGGGTKLTVL
B2: anti-EPOR antibody clonotype466 (antibody, V domains shown)
VH: EVQLVESGGGLVQPGGSLRLSCAASGFTFSIYWMSWVRQAPGKGLEWVATIKEDGSEKYYVDSVKGRFTISRDNAKNSLFLQMNSLRADDTAVYYCARDSNFLYYFDYWGQGDLVTVSS
VL: SSELTQDPALSVALGQTVRITCQGDSLRSFYASWYQQKPGQAPVLVIYGKSNRPSGIPDRFSGSGSGNTASLTITGAQAEDEADFYCNSRDTSGNYLVFGGGTKLTVL
B3: anti-EPOR antibody clonotype468 (antibody, V domains shown)
VH: QVQLVQSGAEVKKPGASVKVSCKASGYTFTSYGISWVRQAPGQGLEWMGWISAYNGNTNYAQKLQGRVTMTTDTSTNTAYMELRSLRSDDTAVYYCARQITGTRGFDYWGQGTLVTVSS
VL: B2 VL with L10V, F30Y, S51N, G65S, F85Y, T92S, Y96H, L97W
B4: anti-EPOR antibody clonotype469 (antibody, V domains shown)
VH: QVQLVQSGAEVKKPGASVKVSCKASGYTFTSYDINWVRQATGQGLEWMGWMNPNSGNTGYAQKFQGRVTMTRNTSISTAYMELSSLRSEDTAVYYCARMGYSNYPFDYWGQGTLVTVSS
VL: SYELTQPPSVSVSPGQTARITCSGDALPKKYAYWYQQKSGQAPVLVIYEDSKRPSGIPERFSGSSSGTMATLTISGAQVEDEADYYCYSTDSSGNHVVFGGGTKLTVL
B5: anti-EPOR antibody clonotype470 (antibody, V domains shown)
VH: QVQLVQSGSEVKKPGASVKVSCKASGYTFTSYYMHWVRQAPGQGLEWMGIINPSGGSTSYAQKFQGRVTMTRDTSTSTVYMELSSLRSEDTAVYYCARGIPTTVTPDYWGQGTLVTVSS
VL: B2 VL with L10V, F30Y, S51N, G65S, F85Y, T92S, Y96H
B6: anti-EPOR antibody clonotype478 (antibody, V domains shown)
VH: B5 VH with S9A, G99R, I100T, P101G, V104H, T105Y, P106F
VL: QSALTQPASVSGSPGQSITISCTGTSSDVGGYNYVSWYQQHPGKAPKLMIYDVSKRPSGVSNRFSGSKSGNTASLTISGLQAEDEADYYCCSYAGSSTLVFGGGTKLTVL
B7: anti-EPOR antibody clonotype480 (antibody, V domains shown)
VH: EVQLVQSGAEVKKPGESLKISCKGSGYSFTSYWIGWVRQMPGKGLEWMGIIYPGDSDTRYSPSFQGQVTISADKSISTAYLQWSSLKASDTAMYYCARFLGSSYYFDYWGQGTLVTVSS
VL: QSALTQPPSASGSPGQSVTISCTGTSSDVGGYNYVSWYQQHPGKAPKLMIYEVSKRPSGVPDRFSGSKSGNTASLTVSGLQAEDEADYYCSSYAGSNNFEVFGGGTKLTVL
B8: anti-EPOR antibody clonotype481 (antibody, V domains shown)
VH: EVQLVESGGGLVQPGGSLRLSCAASGFTFSSYSMNWVRQAPGKGLEWVSYISSSSSTIYYADSVKGRFTISRDNAKNSLYLQMNSLRDEDTAVYYCARGGAAAGAFDIWGQGTMVTVSS
VL: B1 VL
B9: anti-EPOR antibody clonotype490 (antibody, V domains shown)
VH: QITLKESGPTLVKPTQTLTLTCTFSGFSLSTSGVGVGWIRQPPGKALEWLALIYWSDDKRYSPSLKNRLTITKDTSKNQVVLTMTNMDPLATATYYCAQTGYNSWSFDYWGQGTLVTVSS
VL: SYELTQPPSVSVSPGQTARITCSADALPNQYAYWYQQKPGQAPVLVIYKDSERPSGIPERFSGSSSGTTVTLTISGVQAEDEADYYCQSADSSGTWVFGGGTKLTVL
B10: anti-EPOR antibody clonotype498 (antibody, V domains shown)
VH: QVQLVQSGAEVKKPGSSVKVPCKASGDTFSNFAINWVRQAPGQGLEWMGGIIPIFATANYAQNFQGRVTITADESTSAAYMEVSSLRFEDTAVYYCARTPLGIGRSFDLWGQGTMVTVSS
VL: SYVLTQPPSVSVAPGKTARITCGGNNIGSKSVHWYQQTPGQAPVLVIYYDSDRPSGIPDRFSGSNSGNTATLTISRVEAGDEADYYCQVWDSNSDHWVFGGGTKLTVL
B11: anti-EPOR antibody clonotype499 (antibody, V domains shown)
VH: EVHLVESGGGLVKPGGSLRLSCAASGFTFSNAWMSWVRQAPGKGLEWVGRIKRKTDGGTTDFASPVKGRFTISRDDSNNTLYLQMNSLKTEDTAVYYCTTASTVTTGDYWGQGTLVTVSS
VL: SYELTQPPSVSVSPGQTARITCSADALPKQYAYWYQQKPGQAPVLVIYKDSERPSGIPERFSGSSSGTTVTLTISGVQAEDEADYYCQSADSSGTYPVFGGGTKLTVL
B12: anti-EPOR antibody clonotype506 (antibody, V domains shown)
VH: QVQLVESGGGVVRPGGSLRLSCAASGFTFDDYGMSWVRQAPGKGLEWVSGINWNGGSTGYADSVKGRFTISRDNAKNSLYLQMNSLRAEDTALYYCARENYDFWSGFDPWGQGTLVTVSS
VL: B6 VL with D52E, K55N, C91S, A94T, G95S, L99V
B13: anti-EPOR antibody clonotype507 (antibody, V domains shown)
VH: QVHLQQSGPGLVKPSQTLSLTCAISGDSVSSNSAAWNWIRQSPSRGLEWLGRTYYRSKWYNGYAESVKSRITINPDTSKNQFSLQLNSVTPEDTAVYYCAREDRGFDYWGQGTLVTVSS
VL: B6 VL with T98N, L99V, K106N
B14: anti-EPOR antibody clonotype508 (antibody, V domains shown)
VH: EVQLVESGGGLVQPGRSLRLSCAASGFTFDDYAMHWVRQAPGKGLEWVSGISWNSGSIGYADSVKGRFTISRDNAKNSLYLQMNSLRAEDTALYYCAKRAVVTDYYMDVWGKGTTVTVSS
VL: QSALTQPASVSGSPGQSITISCTGTSSDVGGYNYVSWYQQHPGKAPKLMIYDVSKRPSGVSNRFSGSKSGNTASLTISGLQAEDEADYYCCSYAGSSTFWVFGGGTKLTVL
B15: anti-EPOR antibody clonotype509 (antibody, V domains shown)
VH: EVQLVESGGGLVQPGGSLRLSCAASGFTFSSYSMNWVRQAPGKGLEWVSYISSSSNTIYYADSVKGRFTISRDNAKNSLYLQMSSLRDEDTAVYYCARTSSWSYDAFDIWGQGTMVTVSS
VL: B7 VL with E100V
B16: anti-EPOR antibody clonotype512 (antibody, V domains shown)
VH: EVQLVESGGGLVQPGGSLRLSCAASGFNFSSYNMNWVRQTPGKGLEWVSYISNTGNTIYYVDSVKGRFTISRDNAKNSLYLQLNSLRDEDTAVYFCARDGPQVGATDFDYWGQGTLVTVSS
VL: SYELTQPSSVSVSPGQTAKITCSGDVLAKKYARWFQQKPGQVPVLVIYKDSERPSGIPERFSGSSSGATVTLTISGAQVEDEADYYCYSAADNKVFGGGTKLTVL

Biological target: recombinant hEPOR-Fc (SinoBiological, Cat #10707-H02H) (human) (UniProt P19235)
Assay: B cells sorted by flow cytometry on labeled hEPOR-Fc, single cell sequencing

Row | Binder | binding
1 | B1 | binds
2 | B2 | binds
3 | B3 | binds
4 | B4 | binds
5 | B5 | binds
6 | B6 | binds
7 | B7 | binds
8 | B8 | binds
9 | B9 | binds
10 | B10 | binds
11 | B11 | binds
12 | B12 | binds
13 | B13 | binds
14 | B14 | binds
15 | B15 | binds
16 | B16 | binds
